Results on two molecules are retold here after publication doi:10.1101/2024.05.31.595485.

Results are given in words; binding and its absence hold for the method and conditions named. In cells and extracts the contact can be indirect. Some entries that bind do so weakly or less than the wild type. Where a sequence is shown, tags or fusion partners need not be part of it.

Assay [1] has as its target T1, STAG3 (endogenous, chromatin-bound) (mouse (endogenous in mESCs)) (UniProt O70576).
T1 sequence: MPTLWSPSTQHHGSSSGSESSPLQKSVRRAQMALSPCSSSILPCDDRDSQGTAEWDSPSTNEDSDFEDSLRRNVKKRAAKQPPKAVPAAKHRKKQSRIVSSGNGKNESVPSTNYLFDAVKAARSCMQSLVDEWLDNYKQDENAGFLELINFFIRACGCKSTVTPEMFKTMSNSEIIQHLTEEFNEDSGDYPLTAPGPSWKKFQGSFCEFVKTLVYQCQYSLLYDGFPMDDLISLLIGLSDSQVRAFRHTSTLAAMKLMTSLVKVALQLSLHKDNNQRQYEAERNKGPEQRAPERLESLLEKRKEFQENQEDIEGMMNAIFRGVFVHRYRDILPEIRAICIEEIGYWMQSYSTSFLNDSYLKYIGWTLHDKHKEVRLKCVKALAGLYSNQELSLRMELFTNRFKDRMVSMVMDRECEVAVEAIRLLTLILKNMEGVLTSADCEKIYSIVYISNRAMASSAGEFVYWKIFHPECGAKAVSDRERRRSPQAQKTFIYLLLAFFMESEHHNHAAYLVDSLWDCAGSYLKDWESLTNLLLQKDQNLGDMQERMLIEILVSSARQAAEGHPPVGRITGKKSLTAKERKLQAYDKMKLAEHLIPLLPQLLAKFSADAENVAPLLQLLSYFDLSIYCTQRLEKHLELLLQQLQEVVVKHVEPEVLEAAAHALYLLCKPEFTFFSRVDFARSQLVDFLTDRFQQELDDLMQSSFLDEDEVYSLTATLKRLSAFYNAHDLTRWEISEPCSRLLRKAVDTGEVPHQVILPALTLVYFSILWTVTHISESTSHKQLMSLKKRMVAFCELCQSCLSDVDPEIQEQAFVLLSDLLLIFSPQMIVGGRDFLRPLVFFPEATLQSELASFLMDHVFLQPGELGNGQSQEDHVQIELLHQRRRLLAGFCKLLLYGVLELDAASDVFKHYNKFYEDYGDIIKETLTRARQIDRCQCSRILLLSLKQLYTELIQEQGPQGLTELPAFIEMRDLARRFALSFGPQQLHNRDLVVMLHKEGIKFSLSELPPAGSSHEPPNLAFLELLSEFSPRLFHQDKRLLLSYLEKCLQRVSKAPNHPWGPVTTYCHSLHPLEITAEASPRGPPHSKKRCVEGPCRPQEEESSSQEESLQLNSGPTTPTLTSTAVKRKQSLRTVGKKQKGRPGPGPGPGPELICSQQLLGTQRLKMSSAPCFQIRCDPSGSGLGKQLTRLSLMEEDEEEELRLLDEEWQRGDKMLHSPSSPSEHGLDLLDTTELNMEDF
Put plainly: co-IP.

Assay [2] addresses T2, STAG3 (endogenous, chromatin-bound) (mouse (endogenous in mESCs)), O70576.
T2 chain: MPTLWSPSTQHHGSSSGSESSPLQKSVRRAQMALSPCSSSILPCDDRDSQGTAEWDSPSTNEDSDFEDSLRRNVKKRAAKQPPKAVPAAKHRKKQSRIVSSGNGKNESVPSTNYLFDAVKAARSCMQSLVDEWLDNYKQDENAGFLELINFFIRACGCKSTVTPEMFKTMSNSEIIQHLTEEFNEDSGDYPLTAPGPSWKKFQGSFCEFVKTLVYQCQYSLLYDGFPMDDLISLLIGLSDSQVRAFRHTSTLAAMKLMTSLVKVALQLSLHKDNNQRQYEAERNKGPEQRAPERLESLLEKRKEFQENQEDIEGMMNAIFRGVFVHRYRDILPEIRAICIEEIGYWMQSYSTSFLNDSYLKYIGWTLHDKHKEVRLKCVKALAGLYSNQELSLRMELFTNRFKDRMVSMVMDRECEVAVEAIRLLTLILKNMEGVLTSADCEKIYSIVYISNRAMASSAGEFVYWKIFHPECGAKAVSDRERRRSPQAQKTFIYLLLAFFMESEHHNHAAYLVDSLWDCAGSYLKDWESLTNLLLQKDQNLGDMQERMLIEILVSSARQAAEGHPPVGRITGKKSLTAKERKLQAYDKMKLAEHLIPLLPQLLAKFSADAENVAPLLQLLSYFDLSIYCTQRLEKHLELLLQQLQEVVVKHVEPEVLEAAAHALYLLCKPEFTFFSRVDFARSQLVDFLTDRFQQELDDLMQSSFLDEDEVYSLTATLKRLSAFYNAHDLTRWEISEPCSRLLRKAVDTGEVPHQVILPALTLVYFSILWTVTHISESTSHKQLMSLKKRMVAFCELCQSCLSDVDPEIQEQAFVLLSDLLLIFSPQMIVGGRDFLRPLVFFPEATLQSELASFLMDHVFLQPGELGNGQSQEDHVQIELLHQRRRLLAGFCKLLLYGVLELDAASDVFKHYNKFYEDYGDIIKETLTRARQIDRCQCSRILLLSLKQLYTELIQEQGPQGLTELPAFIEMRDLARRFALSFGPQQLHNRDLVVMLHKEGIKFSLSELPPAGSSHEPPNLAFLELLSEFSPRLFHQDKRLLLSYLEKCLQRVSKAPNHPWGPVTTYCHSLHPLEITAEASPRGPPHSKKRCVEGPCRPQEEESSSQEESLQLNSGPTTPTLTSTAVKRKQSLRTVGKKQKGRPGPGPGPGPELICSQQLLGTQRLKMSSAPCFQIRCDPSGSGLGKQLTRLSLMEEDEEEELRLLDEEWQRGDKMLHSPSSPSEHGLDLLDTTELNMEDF
Put plainly: co-IP. As to conditions: remark: other sources report otherwise.

B1: CTCF (protein, UniProt Q61164 1-736)
chain: MEGEAVEAIVEESETFIKGKERKTYQRRREGGQEEDACHLPQNQTDGGEVVQDVNSSVQMVMMEQLDPTLLQMKTEVMEGTVAPEAEAAVDDTQIITLQVVNMEEQPINIGELQLVQVPVPVTVPVATTSVEELQGAYENEVSKEGLAESEPMICHTLPLPEGFQVVKVGANGEVETLEQGELPPQEDSSWQKDPDYQPPAKKTKKTKKSKLRYTEEGKDVDVSVYDFEEEQQEGLLSEVNAEKVVGNMKPPKPTKIKKKGVKKTFQCELCSYTCPRRSNLDRHMKSHTDERPHKCHLCGRAFRTVTLLRNHLNTHTGTRPHKCPDCDMAFVTSGELVRHRRYKHTHEKPFKCSMCDYASVEVSKLKRHIRSHTGERPFQCSLCSYASRDTYKLKRHMRTHSGEKPYECYICHARFTQSGTMKMHILQKHTENVAKFHCPHCDTVIARKSDLGVHLRKQHSYIEQGKKCRYCDAVFHERYALIQHQKSHKNEKRFKCDQCDYACRQERHMIMHKRTHTGEKPYACSHCDKTFRQKQLLDMHFKRYHDPNFVPAAFVCSKCGKTFTRRNTMARHADNCAGPDGVEGENGGETKKSKRGRKRKMRSKKEDSSDSEENAEPDLDDNEEEEEPAVEIEPEPEPQPQPPPPPQPVAPAPPPAKKRRGRPPGRTNQPKQNQPTAIIQVEDQNTGAIENIIVEVKKEPDAEPAEGEEEEAQAATTDAPNGDLTPEMILSMMDR
Consider B1, for which the binding result in assay [1] is “binds”.

B2: RAD21, Q61550 1-635 (protein)
chain: MFYAHFVLSKRGPLAKIWLAAHWDKKLTKAHVFECNLESSVESIISPKVKMALRTSGHLLLGVVRIYHRKAKYLLADCNEAFIKIKMAFRPGVVDLPEENREAAYNAITLPEEFHDFDQPLPDLDDIDVAQQFSLNQSRVEEITMREEVGNISILQENDFGDFGMDDREIMREGSAFEDDDMLVSTSASNLLLEPEQSTSNLNEKMNHLEYEDQYKDDNFGEGNDGGILDDKLISNNDGGIFDDPPALSEAGVMLPEQPAHDDMDEDDNGSLGGPDSPDSVDPVEPMPTMTDQTTLVPNEEEAFALEPIDITVKETKAKRKRKLIVDSVKELDSKTIRAQLSDYSDIVTTLDLAPPTKKLMMWKETGGVEKLFFLPAQPLWNNRLLKLFTRCLTPLVPEDLRKRRKGGEADNLDEFLKEFENPEVPREEQQPQQQQPQPQRDVIDEPIIEEPSRLQDSVMEASRTTIEESAMPPPPPQGVKRKAGQIDPEPSIPPQQVEQMEIPPVELPPEEPPNICQLIPELELLPEKEKEKEKEKEEEEEEEDEDASGGDQDQEERRWNKRTQQMLHGLQRALAKTGAESISLLELCRNTNRKQAAAKFYSFLVLKKQQAIELTQEEPYSDIIATPGPRFHII
Turning to B2, the binding entry in assay [2] was “binds”.
